Assay [1] has as its target T1, MtPT1 (Medicago truncatula) (UniProt O22301).
T1 sequence: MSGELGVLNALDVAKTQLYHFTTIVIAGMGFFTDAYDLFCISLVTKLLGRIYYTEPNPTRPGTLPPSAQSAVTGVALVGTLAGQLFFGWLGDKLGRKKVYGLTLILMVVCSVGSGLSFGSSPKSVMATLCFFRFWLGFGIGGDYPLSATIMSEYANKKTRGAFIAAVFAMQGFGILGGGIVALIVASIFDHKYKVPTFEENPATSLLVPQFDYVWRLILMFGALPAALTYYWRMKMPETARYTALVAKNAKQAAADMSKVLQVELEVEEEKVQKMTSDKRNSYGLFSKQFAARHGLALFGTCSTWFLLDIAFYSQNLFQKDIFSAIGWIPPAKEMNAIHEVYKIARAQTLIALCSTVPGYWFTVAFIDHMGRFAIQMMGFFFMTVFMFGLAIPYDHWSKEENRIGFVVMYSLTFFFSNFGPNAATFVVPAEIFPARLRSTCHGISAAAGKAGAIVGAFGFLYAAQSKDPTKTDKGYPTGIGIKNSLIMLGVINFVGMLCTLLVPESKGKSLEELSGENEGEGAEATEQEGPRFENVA
Kind of assay: two-hybrid; split-ubiquitin membrane yeast two-hybrid (Dualsystems Biotech); MtPT bait in pAMBV4, MtNLA prey in pDL-Nx / pDL-xN; yeast strain DSY1; growth on synthetic medium lacking leucine, tryptophan and histidine.

Assay [2] has as its target T2, MtPT4 (Medicago truncatula) (UniProt Q8GSG4).
T2 sequence: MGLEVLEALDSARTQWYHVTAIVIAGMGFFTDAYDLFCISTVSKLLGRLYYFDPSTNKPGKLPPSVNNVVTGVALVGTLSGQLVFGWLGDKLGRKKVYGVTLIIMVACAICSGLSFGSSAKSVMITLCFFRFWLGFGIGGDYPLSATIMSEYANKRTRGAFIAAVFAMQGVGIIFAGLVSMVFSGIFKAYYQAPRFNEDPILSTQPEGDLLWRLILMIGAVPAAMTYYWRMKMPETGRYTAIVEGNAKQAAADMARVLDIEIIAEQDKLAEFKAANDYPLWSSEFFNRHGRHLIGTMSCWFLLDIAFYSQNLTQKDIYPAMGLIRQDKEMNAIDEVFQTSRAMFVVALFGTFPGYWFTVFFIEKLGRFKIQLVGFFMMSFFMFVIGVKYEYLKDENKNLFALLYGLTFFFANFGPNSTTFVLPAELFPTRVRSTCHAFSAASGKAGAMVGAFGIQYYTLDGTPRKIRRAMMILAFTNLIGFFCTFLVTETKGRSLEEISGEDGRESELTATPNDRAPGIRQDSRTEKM
The description is as above.

These are yes or no findings as the source states them, for the method shown. For part of these data: A result given as binding can be weak or reduced; the word gives no strength.

For the substance MtNLA1/MtNLA2 (Medicago truncatula), the binding entry in assay [1] is on record as “binds”; in assay [2], “no binding”.

For “MtNLA3.1 (full-length) (Medicago truncatula)”, the binding result in assay [1] and in assay [2] was “no binding” throughout.

Turning to MtNLA3.2 (Medicago truncatula), the binding result in assay [1] and in assay [2] was “no binding” each time.

Consider MtNLA3.3 (Medicago truncatula), for which the binding entry is given as “binds” in assay [1] and “no binding” in assay [2].

Take “SPX domain of MtNLA3.1 (1-210 a.a.) (Medicago truncatula) (domain or fragment)”: in assay [1], the binding result was “no binding”.

Values taken from paper PMC10748377.
